In PubChem BioAssay AID274 (DTP/NCI, 2004):
The list is a part of this screen's results and no random one: it gathers some chemical classes. Not every dose and run of a compound is shown. T/C gives the treated animals as a percentage of the vehicle group. For survival time, this PubChem deposit counts one and a half times the control or more as active, and values a quarter to a half above the control carry no call in these data; other NCI protocols may use other cut-offs. Schedule codes are those of the source, taken here to give the interval after Q, in days (D) or hours (H), and the number of doses after X. Some entries show no survivor count and are marked so; the dose need not have been tolerated.

Tested on: BDF1 mice, Lewis lung carcinoma iv, survival T/C
Experiment: NCI In Vivo Anticancer Drug Screen. Data for tumor model Lewis Lung Carcinoma (intravenous) in B6D2F1 (BDF1) mice
Conditions: T/C endpoint: median survival time, schedule: Q01DX009 (ip), higher T/C = longer survival
Procedure: The antitumor activity of compounds was measured in mice bearing transplantable tumors. Survival or tumor size were measured and the results are expressed as the measurement made in the treated group (T) divided by the measurement made in the vehicle treated control group (C). The tumor model used in this assay is Lewis Lung Carcinoma (intravenous) in B6D2F1 (BDF1) mice

C=C(C)C(=O)OCC12CCC(C)=CC1OC1C(=O)C(OC(=O)C(=C)C)C2(C)C12CO2 (configuration not stated)
T/C (dose: 0.25 mg/kg/injection, vehicle: DMSO): 101 % of control [survivor count not shown] | T/C (dose: 0.25 mg/kg/injection, vehicle: saline with Tween-80): 93 % of control [survivor count not shown] | T/C (dose: 0.5 mg/kg/injection, vehicle: DMSO): 97 % of control [survivor count not shown] | T/C (dose: 0.5 mg/kg/injection, vehicle: saline with Tween-80): 98 % of control [survivor count not shown] | T/C (dose: 1.0 mg/kg/injection, vehicle: saline with Tween-80): 102 % of control [survivor count not shown] | T/C (dose: 2.0 mg/kg/injection, vehicle: saline with Tween-80): 102 % of control [survivor count not shown] | T/C (dose: 4.0 mg/kg/injection, vehicle: saline with Tween-80): 102 % of control [survivor count not shown] | T/C (dose: 8.0 mg/kg/injection, vehicle: saline with Tween-80): 93 % of control [survivor count not shown]

CC1=C[C@H]2O[C@@H]3C[C@H]4OC(=O)/C=C\C=C\[C@H]([C@@H](C)O)OC[C@H](O)[C@@]5(C)O[C@@H]5C(=O)OC[C@@]2(C[C@H]1O)[C@]4(C)C31CO1 (some centres not stated)
T/C (dose: 0.15 mg/kg/injection, vehicle: Klucel (hydroxypropylcellulose) (HPC)): 116 % of control [survivor count not shown] | T/C (dose: 0.31 mg/kg/injection, vehicle: Klucel (hydroxypropylcellulose) (HPC)): 94 % of control [survivor count not shown] | T/C (dose: 1.25 mg/kg/injection, vehicle: Klucel (hydroxypropylcellulose) (HPC)): 99 % of control [survivor count not shown]

CC1=C[C@H]2O[C@@H]3C[C@H]4OC(=O)/C=C\C=C\C(C(C)O)OCC[C@@H](C)[C@H](O)C(=O)OC[C@@]2(CC1)[C@]4(C)[C@]31CO1 (some centres not stated)
T/C (dose: 0.03 mg/kg/injection, vehicle: Klucel (hydroxypropylcellulose) (HPC)): 92 % of control [survivor count not shown]
